# Reference: PubChem BioAssay AID1487 (National Center for Advancing Translational Sciences (NCATS), 2009)
# Some of the results follow. Further columns of the screen follow, without active or inactive calls. Compounds called inactive in the main read-out are mostly missing here. Words in brackets tell the shape of the fitted curve; partial curves, single points and poor fits give uncertain potencies.
# Assay: qHTS Assay for Modulators of Lamin A Splicing
# Settings: HeLa LMNA splicing GFP/RFP minigene ratio, 48 h
# Outline: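 S3 HeLa cells stably expressing lamin A-EGFP splicing minigene plus DsRed2, 600 cells/well, 48 h compound exposure at 37C. Laser-scanning cytometry; analysed as GFP (500-530 nm)/RFP (575-640 nm) total intensity ratio; 0.5% DMSO vehicle.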
# [1] = measured here: RFP viability control channel
# [2] = measured here: GFP splicing reporter channel
Structure (SMILES),AC50 [1],AC50 [2]
CCOC(=O)N1CCN(S(=O)(=O)c2ccc3c(c2)SCC(=O)N3)CC1,"20 µM [rising, partial curve]",–
c1ccc(Cc2nc(-c3ccccn3)no2)cc1,–,"35.5 µM [rising, single point]"
Cc1ccccc1OCc1nnc(SCc2cc(=O)c3cc(F)ccc3[nH]2)n1C,–,"0.0224 µM [rising, full curve, poor fit]"
C1CCN(C2CCN(c3nc4nonc4nc3N3CCSCC3)CC2)C1,"0.562 µM [falling, full curve]","1.41 µM [falling, partial curve, poor fit]"
CC[C@H](c1ccc(O)cc1)[C@@H](CC)c1ccc(O)cc1,"0.316 µM [falling, full curve]","0.447 µM [falling, full curve]"
Cc1cc(C)c2c(C)c(C(=O)NCc3ccc(S(N)(=O)=O)cc3)oc2c1,"3.16 µM [falling, single point]","2.82 µM [falling, partial curve]"
Cc1c(Nc2ncccc2C(=O)O)cccc1C(F)(F)F,–,"0.00794 µM [rising, single point]"
CCCN(CCC)C(=O)CC(c1ccccc1)c1cc(Br)ccc1O (centres undefined),"31.6 µM [rising, single point]",–
Cc1ccccc1N=C1N=C(N)c2ccccc21,"20 µM [rising, partial curve, poor fit]",–
O=C(CN1CCN(CCN2C(=O)c3cccc4cccc(c34)C2=O)CC1)c1ccc(F)cc1,"35.5 µM [rising, single point]",–
COc1ccc(-n2cc(CN3CCCC3)c(-c3cccc(F)c3)n2)cc1,"5.62 µM [falling, partial curve, poor fit]","7.94 µM [falling, full curve, poor fit]"
COC(=O)COc1ccc(S(=O)(=O)NCc2ccncc2)cc1,"12.6 µM [rising, single point]",–
Cc1ccc(C(=O)OCC(=O)Nc2cccc(Cl)c2C)c(O)c1,"0.0398 µM [rising, full curve, poor fit]","0.00355 µM [rising, full curve, poor fit]"
Cc1ccc(NC(=O)Cc2c(Cl)cccc2Cl)cc1S(=O)(=O)N(C)C,"22.4 µM [rising, single point]","12.6 µM [rising, single point]"
Cc1cccc(NS(=O)(=O)c2cccc([N+](=O)[O-])c2)n1,"0.0141 µM [falling, partial curve, poor fit]",–
Cn1cccc1CNC(=S)Nc1ccccc1F,"1.78 µM [falling, partial curve, poor fit]",–
COc1ccc(CNC(=O)C2CCN(S(=O)(=O)N3CCC(C)CC3)CC2)c(OC)c1,–,"0.0794 µM [falling, partial curve, poor fit]"
CC1(C)CC(N(Cc2ccccc2)C(=O)Cc2ccccc2)CCO1 (centres undefined),"3.98 µM [falling, partial curve]",–

Structure (SMILES),AC50 [1],AC50 [2]
CCCC(O)(CCC)C(=O)NN(C(=O)CCl)c1ccccc1,"2.24 µM [rising, partial curve, poor fit]","35.5 µM [falling, single point]"
Cn1cc(S(=O)(=O)N2CCc3ccccc32)cc1C(=O)Nc1ccc(C(F)(F)F)cc1,"17.8 µM [rising, partial curve]","5.62 µM [rising, partial curve, poor fit]"
CN1CC(=O)N(CC(=O)Nc2cc(Cl)cc(Cl)c2)C1=O,–,"5.01 µM [falling, full curve]"
CCc1ccc(NC(=O)CSc2nc3c([nH]c4ccccc43)c(=O)n2C)cc1,"20 µM [falling, single point]","0.158 µM [falling, full curve, poor fit]"
CC(C)(C)NC(=O)/C=C/c1cccs1,"0.178 µM [falling, full curve]",–
CC(C)(C)C(=O)Nc1ccccc1C(=O)Nc1cc(Cl)ccc1Cl,–,"20 µM [rising, single point]"
CC(=O)C1=C(O)C(=O)OC1c1ccc(C)cc1 (centres undefined),"3.16 µM [falling, full curve, poor fit]",–
NC(=O)c1ccc(N2CCN(c3ccccc3O)CC2)c([N+](=O)[O-])c1,"0.00447 µM [falling, full curve, poor fit]","0.00447 µM [falling, full curve, poor fit]"
COc1ccc(C(=O)NC(=S)NNC(=O)c2cnccn2)cc1,"5.62 µM [rising, single point]",–
O=C(Nc1ccc(Cl)c(S(=O)(=O)N2CCOCC2)c1)c1ccccc1-c1ccc(C(F)(F)F)cc1,"11.2 µM [rising, partial curve]","11.2 µM [rising, partial curve]"
Cc1cc(C)n2nc(SCc3nnc(SCc4ccccc4)s3)nc2n1,"15.8 µM [rising, single point]","11.2 µM [rising, single point]"
COc1ccc(CCNC(=O)c2c(Nc3ccccc3C)sc(C(=O)c3ccccc3)c2N)cc1OC,"35.5 µM [rising, single point]",–
Cc1sc2ncnc(Sc3nnc4sc5ccccc5n34)c2c1C,"5.62 µM [rising, single point]",–
COC/C=C/C1=CC2=CC(=O)C(C)(OC(=O)c3cnc4ccccc4n3)C(=O)C2=CN1C1CCCCC1 (centres undefined),"3.55 µM [rising, single point]",–
COc1cc2c(cc1O)CCC1C2CC[C@]2(C)[C@@H](O)CC[C@@H]12 (some centres undefined),"2.51 µM [falling, full curve]","1.78 µM [falling, full curve]"
COc1ccc(C(c2nnnn2C2CCCC2)N2CCN(c3ccccc3)CC2)cc1 (centres undefined),"15.8 µM [rising, single point]",–
Cc1ccc(NS(=O)(=O)c2ccc(C3CCCCC3)cc2)cc1,"12.6 µM [rising, partial curve]",–
COc1ccc(S(=O)(=O)N2CCN(C(=O)c3cc(C)oc3C)CC2)cc1,"5.62 µM [rising, partial curve]",–

# Entries shown so far that contain a tert-butyl group, in the order listed:
Structure (SMILES),AC50 [1],AC50 [2]
CC(C)(C)NC(=O)/C=C/c1cccs1,"0.178 µM [falling, full curve]",–
CC(C)(C)C(=O)Nc1ccccc1C(=O)Nc1cc(Cl)ccc1Cl,–,"20 µM [rising, single point]"
